Measurements: patent US9815841B2, “Compounds” (GLAXOSMITHKLINE INTELLECTUAL PROPERTY DEVELOPMENT LIMITED, priority 2014, dated 2017)
Some results were stated once for a whole list of compounds, not compound by compound.

Each molecule was assayed against T1, purified recombinant 6HIS-Tev-LRRK2 (1326-2527) (Homo sapiens, UniProt Q5S007) (assay: Recombinant LRRK2 enzyme peptide substrate TR-FRET assay). Settings: 60 nM LRRK2 (1326-2527), 1 uM Biotin-longer LRRKtide, 10 uM ATP.
T1 construct: A LRRK2 cDNA encoding residues 1326-2527 was received from Dundee University; made in house; host or cells: Spodoptera frugiperda (Sf9) insect cells, baculovirus (pFB-HTb)
T1 sequence (Q5S007 1326-2527): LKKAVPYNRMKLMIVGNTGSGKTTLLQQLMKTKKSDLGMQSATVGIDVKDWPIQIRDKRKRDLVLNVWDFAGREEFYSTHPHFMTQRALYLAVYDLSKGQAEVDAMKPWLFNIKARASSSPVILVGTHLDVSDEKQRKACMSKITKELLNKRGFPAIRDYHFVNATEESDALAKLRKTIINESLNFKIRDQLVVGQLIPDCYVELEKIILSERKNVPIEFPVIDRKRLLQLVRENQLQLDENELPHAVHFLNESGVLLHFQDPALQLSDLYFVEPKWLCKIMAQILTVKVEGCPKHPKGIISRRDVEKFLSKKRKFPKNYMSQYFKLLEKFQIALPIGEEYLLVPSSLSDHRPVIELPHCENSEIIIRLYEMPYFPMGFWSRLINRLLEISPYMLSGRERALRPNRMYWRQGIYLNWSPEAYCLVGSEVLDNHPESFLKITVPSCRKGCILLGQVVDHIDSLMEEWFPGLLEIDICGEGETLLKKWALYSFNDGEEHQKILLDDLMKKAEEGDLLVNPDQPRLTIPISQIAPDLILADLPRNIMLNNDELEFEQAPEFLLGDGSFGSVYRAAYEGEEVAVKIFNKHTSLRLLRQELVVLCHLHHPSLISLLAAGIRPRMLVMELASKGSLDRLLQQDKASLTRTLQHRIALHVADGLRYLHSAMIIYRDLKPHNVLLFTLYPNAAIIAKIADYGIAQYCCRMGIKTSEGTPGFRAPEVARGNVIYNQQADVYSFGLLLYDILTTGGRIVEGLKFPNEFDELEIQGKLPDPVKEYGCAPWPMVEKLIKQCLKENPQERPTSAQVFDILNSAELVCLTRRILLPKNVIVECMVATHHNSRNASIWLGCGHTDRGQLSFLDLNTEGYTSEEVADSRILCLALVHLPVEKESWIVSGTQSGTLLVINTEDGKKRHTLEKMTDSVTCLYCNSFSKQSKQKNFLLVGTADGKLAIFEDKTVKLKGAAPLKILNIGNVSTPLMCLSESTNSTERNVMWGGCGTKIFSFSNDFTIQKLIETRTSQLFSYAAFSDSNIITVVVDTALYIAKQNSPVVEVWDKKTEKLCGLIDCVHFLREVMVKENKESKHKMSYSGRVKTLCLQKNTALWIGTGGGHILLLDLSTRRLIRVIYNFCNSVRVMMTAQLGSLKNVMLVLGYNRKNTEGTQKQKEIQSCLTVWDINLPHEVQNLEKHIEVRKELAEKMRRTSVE
Assay type: biochemical
Procedure: This gene fragment was subcloned into pFB-HTb (Invitrogen) using BamHI and NotI restriction sites. The LRRK2 plasmid was recombined into the baculovirus genome according to the BAC-to-BAC protocol described by Invitrogen. Transfection into Spodoptera frugiperda (Sf9) insect cells was performed using Cellfectin (Invitrogen), according to the manufacturer's protocol to generate P1 and P2 baculovirus stocks.
Sf9 cells were grown in HyClone SFX (Thermo Scientific) growth media at 27° C., 80 rpm in shake flask until of a sufficient volume to inoculate a bioreactor. […] The cells were infected with P2 Baculovirus at a multiplicity of infection (MOI) of 3. The cultivation was continued for a 48 hour expression phase. The infected cells were removed from the growth media by centrifugation at 2500 g using a Sorvall RC 3C Plus centrifuge at 2500 g for 20 minutes. The cell pellet was immediately frozen and subsequently supplied for purification.
A 260 g pellet was allowed to thaw in a water bath at 27° C. with 800 ml lysis buffer/buffer A (50 mm Tris-HCl pH 8.5, 300 mM NaCl, 1 mm DTT, 10% glycerol, 1 ml/L calbiochem complete protease inhibitor cocktail and benzonase (50 ul/800 ml)) before being dounce homogenised on ice using 20 strokes per 100 ml. The suspension was packed in ice and sonicated at 50% amplitude for 3 min 10 sec on/off using a ¾″ probe. The suspension was then centrifuged at 100,000 g for 90 min, at 4° C.
The lysate (700 ml) was decanted from the insoluble pellet and contacted for 3 h at 4 C with 10 ml His bind Ni NTA resin by end over end mixing. The resin was recovered by centrifugation, 3000 g, 5 min at 4 C, and packed in an XK16 column. The column was then washed with 10 column volumes buffer A, 10 column volumes buffer B (buffer A+1M NaCl) and 10 column volumes buffer C (buffer A+20 mM imidazole). The column was then eluted with 15 column volumes buffer D (buffer A+300 mM imidazole) collecting 2 ml fractions. All washes and elution were conducted at 4 ml/min.
Fractions identified by SDS-PAGE as containing protein of interest were pooled and loaded directly onto a 320 ml SEC Superdex 200 pg column that was pre-equilibrated with buffer E (50 mM Tris-HCl pH 8.5, 300 mM NaCl, 10% glycerol, 1 mM DTT). The column was loaded and eluted with 1.2 column volumes buffer E at 2 ml/min collecting 2 ml fractions. Fractions identified by SDS-PAGE as containing protein of interest were tested for activity.
Production of Biotin-Longer LRRKtide
The resulting crude peptide was cleaved from the resin using a 95:2.5:2.5 mix of trifluoroacetic acid:triisopropylsilane:water.
Recombinant LRRK2 Enzyme Peptide Substrate TR-FRET Assay
Assay Protocol • 1. A 10 mM test compound was dissolved in 100% DMSO and serially diluted 1 in 4. 100 nL was then added to a 384 well low volume black plate, excluding columns 6 and 18. 100 nL of DMSO was added to columns 6 and 18 as controls wells. […] Test plates were then incubated for 30 minutes at room temperature. • 3. 3 uL ‘substate solution’ containing 2 uM Biotin-longer LRRKtide peptide substrate and 20 uM ATP was added to all wells of the plate using a multidrop combi dispenser giving a final assay concentration of 1 uM Biotin-longer LRRKtide and 10 uM ATP. Test plates were then incubated for 2 hours at room temperature. (Incubation may vary depending on rate and linearity of reaction with different enzyme batches). • 4. […] Data is analysed using ActivityBase software (IDBS). Dilutions and concentrations of reagents determined on a batch to batch basis

Recombinant LRRK2 enzyme peptide substrate TR-FRET assay (pIC50), ≥ 5.0:
CCOc1nc(Nc2ccc(C(=O)N3CC4CC4(CO)C3)cc2OC)nc2[nH]ccc12 (single isomer, unassigned) [Example E47, (4-((4-ethoxy-7H-pyrrolo-[2,3-d]-pyrimidin-2-yl)amino)-3-methoxyphenyl)(1-(hydroxymethyl)-3-azabicyclo-[3.1.0]-hexan-3-yl)methanone]
CCOc1nc(Nc2ccc(C(=O)N3CCC4(COC4)C3)cc2OC)nc2[nH]ccc12 [Example E12, (4-((4-ethoxy-7H-pyrrolo-[2,3-d]pyrimidin-2-yl)amino)-3-methoxyphenyl)(2-oxa-6-azaspiro-[3.4]-octan-6-yl)-methanone]
CCOc1nc(Nc2ccc(C(=O)N3CCOC3)cc2OC)nc2[nH]ccc12 [Example E17, (4-((4-ethoxy-7H-pyrrolo-[2,3-d]-pyrimidin-2-yl)amino)-3-methoxyphenyl)(oxazolidin-3-yl) methanone]
CCOc1nc(Nc2ccc(C(=O)N3CCOCC3)c(OC)c2)nc2[nH]ccc12 [Example E18, (4-((4-ethoxy-7H-pyrrolo-[2,3-d]-pyrimidin-2-yl)amino)-2-methoxyphenyl)(morpholino)methanone]
CCOc1nc(Nc2ccc(C(=O)N3CCOCC3)cc2N(C)C)nc2[nH]ccc12 [Example E19, (3-(dimethylamino)-4-((4-ethoxy-7H-pyrrolo-[2,3-d]-pyrimidin-2-yl)amino)phenyl)-(morpholino)methanone]
CCOc1nc(Nc2ccc(C(=O)N3CCOCC3)c(C)c2OC)nc2[nH]ccc12 [Example E28, (4-((4-ethoxy-7H-pyrrolo-[2,3-d]pyrimidin-2-yl)amino)-3-methoxy-2-methylphenyl)(morpholino)methanone]
COc1cc(C(=O)N2CCN(C)CC2)ccc1Nc1nc(OCC2CC2)c2cc[nH]c2n1 [Example E33, (4-((4-(cyclopropylmethoxy)-7H-pyrrolo-[2,3-d]pyrimidin-2-yl)amino)-3-methoxyphenyl)(4-methylpiperazin-1-yl) methanone]
COc1cc(C(=O)N2CCOCC2)ccc1Nc1nc(OCC2CC2)c2cc[nH]c2n1 [Example E34, (4-((4-(cyclopropylmethoxy)-7H-pyrrolo-[2,3-d]pyrimidin-2-yl)amino)-3-methoxyphenyl)(morpholino)methanone]
CCOc1nc(Nc2ccc(C(=O)N3CCC[C@H]3COC)cc2OC)nc2[nH]ccc12 [Example E43, (S)-(4-((4-ethoxy-7H-pyrrolo-[2,3-d]-pyrimidin-2-yl)amino)-3-methoxyphenyl)(2-(methoxymethyl)pyrrolidin-1-yl)methanone]
CCOc1nc(Nc2ccc(C(=O)N3CCC4(CC3)CNC4)cc2OC)nc2[nH]ccc12 [Example E51, (4-((4-ethoxy-7H-pyrrolo-[2,3-d]-pyrimidin-2-yl)amino)-3-methoxyphenyl)(2,7-diazaspiro-[3.5]nonan-7-yl)methanone]
CCOc1nc(Nc2ccc(C(=O)N3CCOCC3)cc2OC)nc2[nH]ncc12 [Example E56, (4-((4-ethoxy-1H-pyrazolo-[3,4-d]-pyrimidin-6-yl)amino)-3-methoxyphenyl)(morpholino)methanone]
CCOc1nc(Nc2ccc(C(=O)N3CCN(C)CC3)cc2OC(C)C)nc2[nH]cc(C#N)c12 [Example E61, 4-ethoxy-2-((2-isopropoxy-4-(4-methylpiperazine-1-carbonyl)-phenyl)-amino)-7H-pyrrolo-[2,3-d]pyrimidine-5-carbonitrile]
CCOc1nc(Nc2ccc(C(=O)N3CCC(F)CC3)cc2OC)nc2[nH]cc(C#N)c12 [Example E63, 4-ethoxy-2-((4-(4-fluoropiperidine-1-carbonyl)-2-methoxyphenyl)-amino)-7H-pyrrolo-[2,3-d]pyrimidine-5-carbonitrile]
